Source: PubChem BioAssay AID1347423 (Functional Genomics Laboratory (NCATS/FGL), 2020)
The campaign covered roughly 52,000 sequences. About 210 (0.4%) were called active.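 The calls were made as follows: active = gene whose silencing raises cell survival under the drug, median off-target-corrected z-score across its silencing RNAs 2 or more; inactive = the rest.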 The list shows a part of the results.

Experiment: Resistance to Poly (ADP-Ribose) Polymerase inhibitor: Gene Identification via Genome-wide siRNA Screen
Conditions: mouse BRCA2 R2336H ES cells, olaparib, CellTiter-Glo viability; active compounds read high
Summary of the method: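 Mouse BRCA2 R2336H ES cells were reverse-transfected with siRNA (20 nM final), treated at 48 h with 500 nM olaparib, and read by CellTiter-Glo after 72 h. Scores: MAD-based z per siRNA, median per gene, seed off-target correction.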
In the case of GCAGAUGCUCUCCUUAAAATT against Siglec10, the z-score is reported as inactive: 0.233.
For “CCCACUUUAACCCUUUAUUTT against E130309F12Rik”, the z-score was inactive: -0.45.
For GGAGACGACAAAAAUCAGATT against Mrpl32, the z-score was inactive: 0.124.
In the case of GGCUGAGUAAUGAACCUCUTT against Gmnn, the z-score is reported as inactive: -1.67.
In the case of GCUUGGAAACUCGUCUAAATT against Map1lc3b, the z-score is reported as inactive: -0.718.
For UACACUAGUGCUGUUUACATT against Olfr192, the z-score was inactive: -1.11.
In the case of GUUCUGAGAGGAAAAGACUTT against Olfr559, the z-score is reported as inactive: 1.19.
In the case of GCAUUUUCUGCUCGAUAUUTT against Skil, the z-score is reported as inactive: -0.0796.
With GGAUCCUGGAUAAUCUGGGTT against Plscr1 the z-score was inactive: 0.301.
For GGUGACCAGCAAGUCAUGCTT against Chrdl1, the z-score was inactive: -0.419.
With “GCGUGGUAGAUGCUAUUAATT against 5730466C23Rik” the z-score was inactive: -1.17.
With GGAAAGUCUACAUGUAUUATT against Enpp6 the z-score was inactive: 0.468.
With “GGUGAAAUUUGUCAUGGUCTT against 1810017G16Rik” the z-score was inactive: 0.403.
With GUGGACUUCUUCCUGUUGGTT against Tmem15 the z-score was inactive: -0.00879.
For “GGGUUUUAGAAUGAAAUACTT against 0610009E20Rik”, the z-score was inactive: 0.629.
For GCAAAAGAGUUGGAGUUAGTT against Pcnt2, the z-score was inactive: 0.137.
For CCACUGAAAGGAACAACAATT against Col6a2, the z-score was inactive: 0.553.
For GGUGAUGCUAGUGAUUGAUTT against Ngb, the z-score was inactive: 1.88.
In the case of “CCCUCGACUUCUUACUGUCTT against D10Ertd802e”, the z-score is reported as inactive: 0.00176.
With GCUGUCACUUCAAUAACUGTT against BC024582 the z-score was inactive: -0.786.
With GCAGUGGUAACAGUGGCCATT against Reg3g the z-score was inactive: 2.08.
For “GCUAAACAUAAAAAUCGACTT against 4931406P16Rik”, the z-score was inactive: 1.4.
With GGCAAUAAGCACCUGGGUATT against Serpini2 the z-score was inactive: -0.415.
In the case of GGCUUAUCUCUAAAUCCAATT against Afp, the z-score is reported as inactive: 0.0478.
With CCAGACUAGAUAUCAUAUCTT against Nup54 the z-score was inactive: 0.227.
For GGAUUUCAUCAAAGGUCUUTT against Kcnip4, the z-score was inactive: -0.873.
With GGCUUUCUUCAGUUUUGUCTT against Slc33a1 the z-score was inactive: -0.779.
With GGUUCUCAAGGAAUUGCCCTT against R3hdm the z-score was inactive: 0.658.
In the case of GGCAGGAGAAAGGCCUUUUTT against Olfr535, the z-score is reported as inactive: -1.3.
For GGGAACCAGCCAGUUCAAGTT against Ap1g2, the z-score was inactive: 0.277.
With GGUUGAUGUCAGUGGAAGATT against Dab2ip the z-score was inactive: 0.0174.
For “GGAAUUUGUAUGGUCUCUGTT against D530005L17Rik”, the z-score was inactive: 0.415.
With CCUGGAUAUGCGCAAGUGUTT against Oxt the z-score was inactive: -1.48.
With “GCAUGGGAGCAGUGUGAACTT against 4930542G03Rik” the z-score was inactive: -0.539.
In the case of GGAGUGAAAAAAAUUCACATT against Chrna1, the z-score is reported as inactive: 1.03.
For GGAACACAAGAUUUUCCUGTT against Ppp2r5c, the z-score was inactive: 2.15.
In the case of “GGCUUUGGCUCCAUUAUUCTT against 3300001M20Rik”, the z-score is reported as inactive: -0.177.
For GCAGAUCGAGUGAGCUCUATT against Ccr2, the z-score was inactive: -2.31.
With GGAGAUCAUCCACUUCCAGTT against Dbh the z-score was inactive: -1.33.
For CCUUCCUCCUUUAUGAGCATT against Tsga10, the z-score was inactive: -1.07.
For GGUCAAACUUCAAUAGACATT against Zfp535, the z-score was inactive: 0.947.
In the case of GGAAGUGGUAAUUUCAGUATT against Ssr1, the z-score is reported as inactive: -0.425.
In the case of GGUUUCAAUUCUGUGUUCATT against Unc5b, the z-score is reported as inactive: -0.533.
For “CCACGUGAAGGAGAGAUGATT against 2700078K21Rik”, the z-score was inactive: -0.357.
For CGUGGAUGAGAACUAACCUTT against Rpl31, the z-score was inactive: -2.78.
With GGAAUUGACUUUAAGACAATT against Boll the z-score was inactive: -0.297.
For GGGCAAAAUAUAGCAAUGATT against V1rf5, the z-score was inactive: 0.0734.
For CCUGCAUGCCUAUGUGCGUTT against Ace, the z-score was inactive: 0.0353.
For CCUUGUGAUUGACGAGUGUTT against Snrpg, the z-score was inactive: -2.72.
In the case of GGAAGAGAGCCUCUGCCAATT against Ccnb2, the z-score is reported as inactive: -1.39.
With CGUCUGUCAGAAACUACACTT against Atrnl the z-score was inactive: -1.01.
With “GCCUUAACCGCCAGAUGUCTT against 2900026A02Rik” the z-score was inactive: -0.861.
In the case of GAAACUUAGGGAAACACUATT against Cutl1, the z-score is reported as inactive: -0.929.
In the case of GGCUGAGGAAUCAAAAUGUTT against Mdh1, the z-score is reported as inactive: 2.03.
For “GGUAAAGCCUUUCAGGAAGTT against 5530601I19Rik”, the z-score was inactive: 0.617.
In the case of CCGGGACAAGAAUUUCCUCTT against Xylt2, the z-score is reported as inactive: 0.824.
With “GGAUGUCCAUCAUAUUAAGTT against 4921530G04Rik” the z-score was inactive: -0.0751.
With GGUGAUGAAAUUUAUUGAGTT against Xab1 the z-score was inactive: 0.391.
In the case of GGUGGAAAAAUAUUCUGCATT against Kcnk2, the z-score is reported as inactive: -0.96.
For GCUACUUGUUGAGACCCAATT against Esr1, the z-score was inactive: -1.09.
In the case of “GGAGAAGAAAAAUCUCUCCTT against 1700009P13Rik”, the z-score is reported as inactive: 0.593.
For GGAGGAUUGAGCAGUGUCUTT against Otos, the z-score was inactive: 0.208.
In the case of “GGCGACAAAAAGGCUAAGCTT against 9130227C08Rik”, the z-score is reported as inactive: -0.275.
In the case of GCCUCAGCAAGUGUUAGAUTT against Mtap4, the z-score is reported as inactive: -0.34.
For GGACGAACCUUUAUACCAGTT against Arhgef15, the z-score was inactive: -1.21.
In the case of “CCUCUGUCUGCUAAUAAGATT against C030046I01Rik”, the z-score is reported as inactive: -0.715.
With GACAGAGGAAUUUGUCUCCTT against Olfr1120 the z-score was inactive: 0.643.
With “GGCCAUGUAUGGAGAUUACTT against 1100001G20Rik” the z-score was inactive: -0.276.
In the case of “GGAUCUGACAAGGUACAAGTT against C730027J19Rik”, the z-score is reported as inactive: 1.8.
For “GGUCGACAGACUCUUGCAUTT against D830007F02Rik”, the z-score was inactive: 1.99.
For GUGUUCACCUGACUUUCCCTT against LOC235779, the z-score was inactive: -1.57.
With GGUUGUAGAAGAUGGCUAUTT against Ppp1ca the z-score was inactive: -0.286.
For GGAAGGAAACUACGAAGGUTT against Edn1, the z-score was inactive: -0.352.
For GCAAAGGAUCGCUUGAAAATT against Mrpl40, the z-score was inactive: -0.347.
In the case of GGCUGUGCAAGAUGUUCUATT against Gpr27, the z-score is reported as inactive: 1.71.
In the case of GGAGAAUUUGAAGCAACCUTT against Crsp2, the z-score is reported as inactive: -1.93.
In the case of GGGUAACAGUGCCUUUACUTT against Tnrc11, the z-score is reported as inactive: 1.65.
In the case of GGUACAUGAUUACCAGCCUTT against Sdk2, the z-score is reported as inactive: -0.104.
With GCCCUAUAUGUACCAAGUGTT against Mmp14 the z-score was inactive: 0.788.
In the case of CCCUAUACACAAGAUGAACTT against Cd96, the z-score is reported as inactive: 1.47.
In the case of GGGUAGGUCCUUUGUAACCTT against Pcdhb16, the z-score is reported as inactive: 0.505.
For “GGGAACUCGACAAAGAAAUTT against 4930529M08Rik”, the z-score was inactive: 0.522.
In the case of GCUUAGUGACAUUCAAUCATT against Pde1c, the z-score is reported as inactive: -0.0664.
With “CGACAAUGAAUUCAAUGGGTT against 4930570C03Rik” the z-score was inactive: 0.0205.
For GGACUAUUCACAAAGAAGATT against Dusp11, the z-score was inactive: 0.0931.
With GGGAGUCCCAAUUGUGUGCTT against Gpr88 the z-score was inactive: -0.537.
With GGACUUCUCUGGGACUUCATT against Syt9 the z-score was inactive: -0.782.
With “GGAAUCUUUAUCCACAUUCTT against 4631426J05Rik” the z-score was inactive: 0.461.
With GGAAAUAGAAACAACAGGATT against Nos2 the z-score was inactive: -0.212.
For GGGUCAGUGUGGAGAGUACTT against Col13a1, the z-score was inactive: -0.9.
With GGAAGAAAACACUUGGUUUTT against Cant1 the z-score was inactive: 1.87.
With “GCCGCACAUGCCUACAGAATT against 2900092E17Rik” the z-score was inactive: -0.809.
In the case of GGUGCAAAUAAACAACAGATT against Zfpl1, the z-score is reported as inactive: 0.308.
In the case of “GGACGAUUACAUCCUUUUUTT against A930018B01Rik”, the z-score is reported as inactive: -0.0195.
In the case of GGCCAUGGUACACAAUGGUTT against BC027556, the z-score is reported as inactive: -0.105.
With GGCAAGUGAGGAAAAGAGGTT against BC010250 the z-score was inactive: -0.0762.
With UAGGCGGGAAGGCAUUUUCTT against Gngt1 the z-score was inactive: -0.0138.
With CGCCCACCAGAAUAUAUAUTT against Il4i1 the z-score was inactive: -1.32.
For GCUUGUUCACCCAGUUAUGTT against MGC78289, the z-score was inactive: 0.265.
In the case of GGAUUAUGGUACCAAGCGCTT against Umps, the z-score is reported as inactive: 1.95.
For GCACAGCUCAACGAAUUGGTT against Otp, the z-score was inactive: -0.00861.
For “GGCAGAAUCUGCUUUAGUUTT against 2700078K21Rik”, the z-score was inactive: 1.02.
For GCGUGUACAAGGCUAUUCATT against Stk4, the z-score was inactive: -1.68.
